Reference: US12054478B2, “Compositions and methods for inhibiting phenyl triazole MLL1-WDR5 protein-protein interaction” (China Pharmaceutical University, priority 2018, dated 2024)
At least one structure is not confirmed: it was looked up by name or label, or the drawing left a doubt.

Each molecule was assayed on H3K4 acetylation level (MLL1 catalytic activity in cells) (assay: Western-blot at cellular level, H3K4 acetylation (H3K4me1/2/3) levels). Conditions: Yes/No.
Type: cell-based
Method: In addition, Western-blot experiments at cellular level were conducted with some of the compounds in the present disclosure, with results listed in Table 1 on whether some of the compounds in the present disclosure inhibited H3K4 acetylation levels.
The inhibition on MLL1 catalytic activities at the cellular level for some of the compounds was plotted in FIG. 2.
In the case of `Cc1c(F)c(N)cc(C(=O)Nc2cc(-n3cc(C(=O)NC4CCN(C)CC4)nn3)ccc2N2CCN(C)CC2)c1Cl` [Example 6, 1-(3-(5-Amino-2-chloro-4-fluoro-3-methylbenzoylamino)-4-(4-methylpiperazin-1-group)phenyl)-N-(1-methylpiperidin-4-group)-1H-1,2,3-triazole-4-carboxamide], the “Inhibition on H3K4 acetylation level” value is reported as “Yes”. `Cc1c(F)c(N)cc(C(=O)Nc2cc(-n3cc(C(=O)O)nn3)ccc2N2CCN(C)CC2)c1Cl` [Example 2, 1-(3-(5-Amino-2-chloro-3-methylbenzoylamino)-4-(4-methylpiperazin-1-group)phenyl)-1H-1,2,3-Triazole-4-carboxylic acid] was tested, and the “Inhibition on H3K4 acetylation level” value was “Yes”. For `Cc1c(F)c(N)cc(C(=O)Nc2cc(-n3cc(C(=O)NC4CCOCC4)nn3)ccc2N2CCN(C)CC2)c1Cl` [Example 5, 1-(3-(5-Amino-2-chloro-4-fluoro-3-methylbenzoylamino)-4-(4-methylpiperazin-1-group)phenyl)-N-(tetrahydro-2H-pyran-4-yl)-1H-1,2,3-triazole-4-carboxamide], the “Inhibition on H3K4 acetylation level” value was “Yes”. In the case of `Cc1c(F)c(N)cc(C(=O)Nc2cc(-n3cc(C(=O)N4CCN(C)CC4)nn3)ccc2N2CCN(C)CC2)c1Cl` [Example 8, 5-amino-2-chloro-4-fluoro-3-ethyl-N-(2-(4-methylpiperazin-1-group)-5-(4-(methylpiperazin-1-Carbonyl)-1H-1,-1H-1,2,3-triazole-1-group) Phenyl)-carboxamide], the “Inhibition on H3K4 acetylation level” value is reported as “Yes”. `Cc1c(F)c(N)cc(C(=O)Nc2cc(-n3cc(C(=O)NCCN4CCOCC4)nn3)ccc2N2CCN(C)CC2)c1Cl` [Example 9] was tested, and the “Inhibition on H3K4 acetylation level” value was “Yes”. In the case of `Cc1c(F)c(N)cc(C(=O)Nc2cc(-n3cc(C(=O)N(C)C)nn3)ccc2N2CCN(C)CC2)c1Cl` [Example 3, 1-(3-(5-Amino-2-chloro-4-fluoro-3-methylbenzoylamino)-4-(4-methylpiperazin-1-group)phenyl)-N, N-dimethyl-1H-1,2,3 triazole-4-carboxamide], the “Inhibition on H3K4 acetylation level” value is reported as “Yes”.
